From patent EP0405436B1, “Dihetero nitrogen-containing cycloheteroethanoanthracene derivatives as antipsychotic agents” (G.D. Searle & Co., priority 1989, dated 1991)
At least one compound was matched to its structure with a doubt left.

Test system: N-allylnormetazocine-induced stereotyped behavior and ataxia
Test: Blockade of agonist-induced stereotyped behavior and ataxia
Assay type: in vivo
Details: 15 mg/kg N-allylnormetazocine i.p.

CN1CCN(CC2CC3c4ccccc4C2c2ccccc23)CC1 (centres unmarked) [Compound No. 1, 4-[(9,10-Dihydro-9,10-ethanoanthracenyl)methyl]-1-methylpiperazine]
blockade of N-allylnormetazocine-induced stereotyped behavior (dose of 1 mg/kg i.p.): fully blocked
blockade of N-allylnormetazocine-induced ataxia (dose of 5 mg/kg): fully blocked
